US7410975B2, “Small molecule toll-like receptor (TLR) antagonists” (Coley Pharmaceutical Group, Inc., priority 2003, dated 2008)

What was measured:
Assay type in all cases: cell-based
human TLR9 (hTLR9) = target: T1, human TLR9 (hTLR9) (Homo sapiens, UniProt Q9NR96); test: Antagonist screen, hTLR9-NFκB-293 cells, 6× NF-κB-luciferase reporter, with EC50 of CpG ODN 2006; details: compound at 0.5, 5, 50 μg/ml, EC50 concentration of CpG ODN 2006, 16 h
T1 construct: expressed in transfected cells
T1 sequence (Q9NR96 26-1032): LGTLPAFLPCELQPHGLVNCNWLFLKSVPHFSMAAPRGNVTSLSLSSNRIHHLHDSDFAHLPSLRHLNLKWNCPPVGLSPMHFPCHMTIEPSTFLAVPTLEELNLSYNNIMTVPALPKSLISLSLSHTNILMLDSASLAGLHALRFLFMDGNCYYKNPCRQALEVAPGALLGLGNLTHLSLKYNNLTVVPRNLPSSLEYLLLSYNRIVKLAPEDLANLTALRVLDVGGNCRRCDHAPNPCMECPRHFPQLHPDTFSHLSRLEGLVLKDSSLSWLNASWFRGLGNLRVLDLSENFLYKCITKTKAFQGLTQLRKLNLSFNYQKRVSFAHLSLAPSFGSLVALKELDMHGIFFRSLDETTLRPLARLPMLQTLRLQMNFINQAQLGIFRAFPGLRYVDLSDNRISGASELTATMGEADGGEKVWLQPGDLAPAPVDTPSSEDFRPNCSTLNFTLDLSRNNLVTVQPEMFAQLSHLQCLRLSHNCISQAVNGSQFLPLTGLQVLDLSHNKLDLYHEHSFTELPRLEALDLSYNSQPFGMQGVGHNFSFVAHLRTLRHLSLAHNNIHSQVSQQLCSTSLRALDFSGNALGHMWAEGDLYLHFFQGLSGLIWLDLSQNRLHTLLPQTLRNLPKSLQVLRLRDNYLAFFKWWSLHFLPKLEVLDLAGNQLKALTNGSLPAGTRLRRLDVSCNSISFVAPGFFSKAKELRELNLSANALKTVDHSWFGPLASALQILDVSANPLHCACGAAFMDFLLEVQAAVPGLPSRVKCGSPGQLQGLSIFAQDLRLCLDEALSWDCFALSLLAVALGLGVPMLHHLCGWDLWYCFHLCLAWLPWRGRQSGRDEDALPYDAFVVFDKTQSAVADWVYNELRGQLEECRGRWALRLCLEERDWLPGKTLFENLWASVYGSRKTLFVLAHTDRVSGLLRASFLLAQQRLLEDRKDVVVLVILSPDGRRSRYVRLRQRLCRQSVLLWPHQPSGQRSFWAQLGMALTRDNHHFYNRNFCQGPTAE
Procedure: Candidate small molecules for initial screening were obtained from a commercially available library of 880 off-patent small molecules selected for structural diversity and proven bioavailability in humans (Prestwick Chemical Library). […] Results were measured as fold induction over baseline luciferase activity measured in the absence of ODN 2006 and compared to fold induction over baseline in the presence of the EC50 concentration of ODN 2006 alone. From this initial screening a number of small molecules were identified as lead compounds and were categorized by structure and activity. […]
The method is described in greater detail as follows. The cells for each individual cell clone (hTLR3-NFκB-293, hTLR7-NFκB-293, hTLR8-NFκB-293 and hTLR9-NFκB-293) were counted and seeded one day before the stimulation at 1.5×10^4 cells per well in 96-well cell culture plates. […]
For each screen result a graphical documentation was performed. A numerical score, describing the graphical results, was determined for each compound. […]
The baseline result (measured with addition of the EC50 concentration of the receptor-specific ligand) for each cell culture plate was measured as described above. Antagonistic effects were measured by down regulation compared to the baseline. […]

human TLR8 (hTLR8) = target: T2, human TLR8 (hTLR8) (Homo sapiens, UniProt Q9NR97); test: Antagonist screen, hTLR8-NFκB-293 cells, NF-κB-luciferase reporter, with EC50 of R848; details: compound at 0.5, 5, 50 μg/ml, EC50 concentration of R848, 16 h
T2 construct: expressed in transfected cells
T2 sequence (Q9NR97 27-1041): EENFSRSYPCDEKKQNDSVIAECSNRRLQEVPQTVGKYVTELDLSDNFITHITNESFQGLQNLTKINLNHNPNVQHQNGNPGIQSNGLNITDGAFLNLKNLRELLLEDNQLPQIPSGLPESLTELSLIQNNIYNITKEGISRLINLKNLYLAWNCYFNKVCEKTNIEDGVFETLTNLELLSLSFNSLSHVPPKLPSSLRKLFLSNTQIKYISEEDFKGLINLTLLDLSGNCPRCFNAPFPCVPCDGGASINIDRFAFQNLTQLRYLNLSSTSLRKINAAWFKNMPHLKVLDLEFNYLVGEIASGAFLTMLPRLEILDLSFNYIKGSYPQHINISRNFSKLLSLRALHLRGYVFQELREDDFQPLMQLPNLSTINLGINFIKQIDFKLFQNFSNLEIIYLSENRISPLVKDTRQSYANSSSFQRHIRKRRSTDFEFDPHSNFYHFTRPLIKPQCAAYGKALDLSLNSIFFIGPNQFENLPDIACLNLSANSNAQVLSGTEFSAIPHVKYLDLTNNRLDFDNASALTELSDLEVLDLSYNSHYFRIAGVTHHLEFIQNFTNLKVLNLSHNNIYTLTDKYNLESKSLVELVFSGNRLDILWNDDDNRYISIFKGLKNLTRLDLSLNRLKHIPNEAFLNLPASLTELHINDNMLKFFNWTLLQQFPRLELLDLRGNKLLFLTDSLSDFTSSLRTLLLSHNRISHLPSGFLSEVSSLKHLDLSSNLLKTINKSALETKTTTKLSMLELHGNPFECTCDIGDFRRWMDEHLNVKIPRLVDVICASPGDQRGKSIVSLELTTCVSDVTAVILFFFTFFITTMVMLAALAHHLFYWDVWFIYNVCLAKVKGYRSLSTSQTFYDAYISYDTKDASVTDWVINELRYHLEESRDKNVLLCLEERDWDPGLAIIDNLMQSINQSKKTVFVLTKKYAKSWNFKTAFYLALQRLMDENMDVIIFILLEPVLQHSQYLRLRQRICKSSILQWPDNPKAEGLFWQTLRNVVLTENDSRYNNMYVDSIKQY
Procedure: (§1) The method is described in greater detail as follows. The cells for each individual cell clone (hTLR3-NFκB-293, hTLR7-NFκB-293, hTLR8-NFκB-293 and hTLR9-NFκB-293) were counted and seeded one day before the stimulation at 1.5×10^4 cells per well in 96-well cell culture plates. To become adherent the cells were incubated after seeding overnight at 37° C. in 5% CO2 humidified air.
(§2) The screen for each compound was performed at the same time for all of the receptors TLR3, TLR7, TLR8 and TLR9. […]
(§3) The baseline result (measured with addition of the EC50 concentration of the receptor-specific ligand) for each cell culture plate was measured as described above. Antagonistic effects were measured by down regulation compared to the baseline. Antagonists were scored as follows: • 13: compounds for which there was clear down regulation at 0.5 μg/ml, 5 μg/ml, and 50 μg/ml; • 12: compounds for which there was clear down regulation at 5 μg/ml and 50 μg/ml; • 11: compounds for which there was clear down regulation only at 50 μg/ml; • —: compounds for which there was no clear down regulation even at 50 μg/ml. […]
(§4) Results were expressed as fold induction over baseline luciferase activity measured in the absence of R848. […]

human TLR7 (hTLR7) = target: T3, human TLR7 (hTLR7) (Homo sapiens, UniProt Q9NYK1); test: Antagonist screen, hTLR7-NFκB-293 cells, NF-κB-luciferase reporter, with EC50 of R848; details: compound at 0.5, 5, 50 μg/ml, EC50 concentration of R848, 16 h
T3 construct: expressed in transfected cells
T3 sequence (Q9NYK1 27-1049): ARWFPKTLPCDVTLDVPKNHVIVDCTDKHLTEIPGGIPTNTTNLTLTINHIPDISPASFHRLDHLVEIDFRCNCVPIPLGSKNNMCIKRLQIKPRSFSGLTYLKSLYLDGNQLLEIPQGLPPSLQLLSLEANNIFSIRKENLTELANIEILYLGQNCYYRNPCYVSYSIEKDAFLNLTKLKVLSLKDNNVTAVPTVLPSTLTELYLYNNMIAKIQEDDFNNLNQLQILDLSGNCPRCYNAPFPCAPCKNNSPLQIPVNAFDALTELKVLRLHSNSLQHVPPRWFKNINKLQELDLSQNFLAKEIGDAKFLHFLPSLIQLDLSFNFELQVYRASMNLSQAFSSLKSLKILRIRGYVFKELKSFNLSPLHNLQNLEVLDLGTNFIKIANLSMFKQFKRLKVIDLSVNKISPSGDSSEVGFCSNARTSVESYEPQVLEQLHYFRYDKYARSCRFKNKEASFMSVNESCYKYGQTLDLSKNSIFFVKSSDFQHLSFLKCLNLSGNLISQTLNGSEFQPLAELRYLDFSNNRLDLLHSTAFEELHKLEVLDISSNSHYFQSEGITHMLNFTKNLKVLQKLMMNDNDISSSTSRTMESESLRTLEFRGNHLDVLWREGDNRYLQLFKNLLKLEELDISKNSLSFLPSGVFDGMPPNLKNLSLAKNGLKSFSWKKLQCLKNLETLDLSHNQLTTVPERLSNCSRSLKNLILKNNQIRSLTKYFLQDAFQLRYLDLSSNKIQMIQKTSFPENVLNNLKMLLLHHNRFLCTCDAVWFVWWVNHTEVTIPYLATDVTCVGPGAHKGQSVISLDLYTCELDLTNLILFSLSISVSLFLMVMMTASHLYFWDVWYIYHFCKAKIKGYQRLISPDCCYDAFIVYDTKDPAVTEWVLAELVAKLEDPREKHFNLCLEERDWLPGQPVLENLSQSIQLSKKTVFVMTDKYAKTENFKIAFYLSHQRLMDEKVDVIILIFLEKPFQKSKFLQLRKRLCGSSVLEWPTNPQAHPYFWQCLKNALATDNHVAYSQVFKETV
Procedure: as §1, §2, §3, §4

human TLR3 (hTLR3) = target: T4, human TLR3 (hTLR3) (Homo sapiens, UniProt O15455); test: Antagonist screen, hTLR3-NFκB-293 cells, NF-κB-luciferase reporter, with EC50 of poly(I:C); details: compound at 0.5, 5, 50 μg/ml, EC50 concentration of poly(I:C), 16 h
T4 construct: expressed in transfected cells
T4 sequence (O15455 24-904): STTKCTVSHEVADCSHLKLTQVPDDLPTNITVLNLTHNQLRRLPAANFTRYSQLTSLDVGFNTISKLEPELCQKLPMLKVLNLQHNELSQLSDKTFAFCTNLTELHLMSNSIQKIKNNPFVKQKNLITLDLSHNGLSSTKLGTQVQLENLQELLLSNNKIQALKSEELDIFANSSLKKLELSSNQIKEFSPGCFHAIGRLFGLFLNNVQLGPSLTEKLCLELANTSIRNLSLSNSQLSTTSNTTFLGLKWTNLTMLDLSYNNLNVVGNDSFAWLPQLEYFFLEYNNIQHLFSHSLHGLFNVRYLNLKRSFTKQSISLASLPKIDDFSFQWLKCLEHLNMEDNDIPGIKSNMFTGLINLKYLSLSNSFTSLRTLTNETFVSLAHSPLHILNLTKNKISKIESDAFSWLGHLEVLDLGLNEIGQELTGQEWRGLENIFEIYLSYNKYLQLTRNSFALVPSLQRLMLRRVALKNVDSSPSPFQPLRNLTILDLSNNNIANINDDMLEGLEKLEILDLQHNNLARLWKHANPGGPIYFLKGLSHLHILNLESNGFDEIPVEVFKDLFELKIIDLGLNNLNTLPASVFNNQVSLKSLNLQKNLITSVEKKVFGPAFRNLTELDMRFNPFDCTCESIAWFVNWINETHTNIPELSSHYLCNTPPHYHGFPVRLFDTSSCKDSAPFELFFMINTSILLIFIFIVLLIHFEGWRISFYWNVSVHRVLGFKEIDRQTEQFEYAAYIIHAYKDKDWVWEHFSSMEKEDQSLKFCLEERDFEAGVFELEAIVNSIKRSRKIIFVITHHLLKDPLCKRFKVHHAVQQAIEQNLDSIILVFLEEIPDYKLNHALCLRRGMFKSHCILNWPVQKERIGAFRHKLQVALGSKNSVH
Procedure: as §1, §2, §3
Results were expressed as fold induction over baseline luciferase activity measured in the absence of poly(I:C). […]

CN(C)CCOC(c1ccccc1)c1ccccc1.Cl [compound 65, Diphenhydraminehydrochloride]
hTLR9 (inhibitory effect, antagonist score) (human TLR9 (hTLR9)): 11 (compounds for which there was clear down regulation only at 50 μg/ml) | hTLR8 (inhibitory effect, antagonist score) (human TLR8 (hTLR8)): — (compounds for which there was no clear down regulation even at 50 μg/ml) | hTLR7 (inhibitory effect, antagonist score) (human TLR7 (hTLR7)): — (compounds for which there was no clear down regulation even at 50 μg/ml) | hTLR3 (inhibitory effect, antagonist score) (human TLR3 (hTLR3)): — (compounds for which there was no clear down regulation even at 50 μg/ml)
